In PubChem BioAssay AID256 (DTP/NCI, 2004):
The list is a part of this screen's results and no random one: it gathers some chemical classes. Other doses and runs of a compound may be missing. T/C gives the treated animals as a percentage of the vehicle group. Some doses have a count of surviving animals in place of a T/C: the source files T/C as zero there, which appears to mark a toxic dose or a test without result, not a measured value. Counts of survivors are from the toxicity check (mostly the fifth day) where no day follows; animals may have died later. Schedules are NCI's codes, taken here to give the interval after Q, in days (D) or hours (H), and the number of doses after X. For survival time, this PubChem deposit counts one and a half times the control or more as active, and values a quarter to a half above the control carry no call in these data; other NCI protocols may use other cut-offs. Some T/C values are marked as having no survivor count here; that says nothing about deaths at the dose. Some doses were run more than once; the results are listed from low to high.

System: CD2F1 mice, L1210 leukemia ip, survival T/C
Assay: NCI In Vivo Anticancer Drug Screen. Data for tumor model L1210 Leukemia (intraperitoneal) in CD2F1 (CDF1) mice
Conditions: higher T/C = longer survival
In short: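 Transplantable tumor in mice; compound-treated vs vehicle-treated groups. Read-out = treated/control ratio of the measured endpoint.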

[1] = T/C endpoint: mean survival time, dose: 6.25 mg/kg/injection, schedule: Q01DX009 (ip), vehicle: Klucel (hydroxypropylcellulose) (HPC)
[2] = T/C endpoint: mean survival time, dose: 12.5 mg/kg/injection, schedule: Q01DX009 (ip), vehicle: Klucel (hydroxypropylcellulose) (HPC)
[3] = T/C endpoint: mean survival time, dose: 25.0 mg/kg/injection, schedule: Q01DX009 (ip), vehicle: Klucel (hydroxypropylcellulose) (HPC)
[4] = T/C endpoint: mean survival time, dose: 50.0 mg/kg/injection, schedule: Q01DX009 (ip), vehicle: Klucel (hydroxypropylcellulose) (HPC)

## NC(Cc1cccc(N(CCCl)CCCl)c1)C(=O)O (stereo unspecified)
T/C endpoint: mean survival time, dose: 2.0 mg/kg/injection, schedule: Q01DX007 (ip), vehicle: saline
  T/C: 138 % of control [survivor count not shown]
T/C endpoint: mean survival time, dose: 2.0 mg/kg/injection, schedule: Q01DX009 (ip), vehicle: saline
  T/C: 154 % of control [survivor count not shown]
T/C endpoint: mean survival time, dose: 2.0 mg/kg/injection, schedule: Q03DX003 (ip), vehicle: saline
  T/C: 145 % of control [survivor count not shown]
T/C endpoint: mean survival time, dose: 2.0 mg/kg/injection, schedule: Q04DX003 (ip), vehicle: saline
  T/C: 122 % of control [survivor count not shown]
T/C endpoint: mean survival time, dose: 4.0 mg/kg/injection, schedule: Q01DX007 (ip), vehicle: saline
  T/C: 132 % of control [survivor count not shown]
T/C endpoint: mean survival time, dose: 4.0 mg/kg/injection, schedule: Q01DX009 (ip), vehicle: saline
  T/C: 139 % of control [survivor count not shown]
T/C endpoint: mean survival time, dose: 4.0 mg/kg/injection, schedule: Q03DX003 (ip), vehicle: saline
  T/C: 180 % of control [survivor count not shown]
T/C endpoint: mean survival time, dose: 4.0 mg/kg/injection, schedule: Q04DX003 (ip), vehicle: saline
  T/C: 145 % of control [survivor count not shown]
T/C endpoint: mean survival time, dose: 8.0 mg/kg/injection, schedule: Q03DX003 (ip), vehicle: saline
  T/C: 163 % of control [survivor count not shown]
T/C endpoint: mean survival time, dose: 8.0 mg/kg/injection, schedule: Q04DX003 (ip), vehicle: saline
  T/C: 151 % of control [survivor count not shown]

## O=c1oc(CCN(CCCl)CCCl)nc2ccccc12
T/C endpoint: mean survival time, dose: 100.0 mg/kg/injection, schedule: Q01DX001 (ip), vehicle: Klucel (hydroxypropylcellulose) (HPC)
  T/C: 108 [survivor count not shown] and 110 % of control [survivor count not shown]
T/C endpoint: mean survival time, dose: 200.0 mg/kg/injection, schedule: Q01DX001 (ip), vehicle: Klucel (hydroxypropylcellulose) (HPC)
  T/C: 134 [survivor count not shown] and 143 % of control [survivor count not shown]
T/C endpoint: mean survival time, dose: 400.0 mg/kg/injection, schedule: Q01DX001 (ip), vehicle: Klucel (hydroxypropylcellulose) (HPC)
  T/C: 116 % of control [survivor count not shown]

## CN1CC(C(C)(C)C)COP1(=O)N(CCCl)CCCl (stereo unspecified)
T/C endpoint: mean survival time, dose: 62.5 mg/kg/injection, schedule: Q01DX001 (ip), vehicle: distilled water + Tween-80
  T/C: 107 % of control
T/C endpoint: mean survival time, dose: 125.0 mg/kg/injection, schedule: Q01DX001 (ip), vehicle: distilled water + Tween-80
  T/C: 94 % of control

## ClCCN(CCCl)c1ccc(Cl)cc1
[1]
  T/C: 97 % of control [survivor count not shown]
[2]
  T/C: 100 % of control [survivor count not shown]
[3]
  T/C: 95 [survivor count not shown] and 105 % of control [survivor count not shown]
[4]
  T/C: 101 [survivor count not shown] and 102 % of control [survivor count not shown]
T/C endpoint: mean survival time, dose: 100.0 mg/kg/injection, schedule: Q01DX009 (ip), vehicle: Klucel (hydroxypropylcellulose) (HPC)
  T/C: 92 [survivor count not shown] and 101 % of control [survivor count not shown]
T/C endpoint: mean survival time, dose: 200.0 mg/kg/injection, schedule: Q01DX009 (ip), vehicle: Klucel (hydroxypropylcellulose) (HPC)
  T/C: 103 [survivor count not shown] and 106 % of control [survivor count not shown]
T/C endpoint: mean survival time, dose: 300.0 mg/kg/injection, schedule: Q01DX009 (ip), vehicle: Klucel (hydroxypropylcellulose) (HPC)
  T/C: 98 % of control [survivor count not shown]
T/C endpoint: mean survival time, dose: 400.0 mg/kg/injection, schedule: Q01DX009 (ip), vehicle: Klucel (hydroxypropylcellulose) (HPC)
  T/C: 100 [survivor count not shown] and 102 % of control [survivor count not shown]

## O=P1(N(CCCl)CCCl)OC2CCN1CC2 (stereo unspecified)
T/C endpoint: mean survival time, dose: 25.0 mg/kg/injection, schedule: Q01DX001 (ip), vehicle: DMSO
  T/C: 94 % of control
T/C endpoint: mean survival time, dose: 50.0 mg/kg/injection, schedule: Q01DX001 (ip), vehicle: DMSO
  T/C: 109 % of control
T/C endpoint: mean survival time, dose: 100.0 mg/kg/injection, schedule: Q01DX001 (ip), vehicle: DMSO
  T/C: 100 % of control
T/C endpoint: mean survival time, dose: 200.0 mg/kg/injection, schedule: Q01DX001 (ip), vehicle: DMSO
  survivor count: 1 of 6
T/C endpoint: mean survival time, dose: 400.0 mg/kg/injection, schedule: Q01DX001 (ip), vehicle: DMSO
  survivor count: 0 of 6
T/C endpoint: mean survival time, dose: 800.0 mg/kg/injection, schedule: Q01DX001 (ip), vehicle: DMSO
  survivor count: 0 of 6

## C1CCC(NC2CCCCC2)CC1.O=C(O)C(O)c1ccc(N(CCCl)CCCl)cc1 (stereo unspecified)
[2]
  T/C: 127 % of control [survivor count not shown]
[3]
  T/C: 121 % of control [survivor count not shown]
[4]
  T/C: 128 % of control [survivor count not shown]

## O=C(O)CN(CCCl)CCCl
T/C endpoint: mean survival time, dose: 2.5 mg/kg/injection, schedule: Q01DX007 (ip), vehicle: saline
  T/C: 120 % of control [survivor count not shown]
T/C endpoint: mean survival time, dose: 2.5 mg/kg/injection, schedule: Q01DX009 (ip), vehicle: saline
  T/C: 124 % of control [survivor count not shown]
T/C endpoint: mean survival time, dose: 2.5 mg/kg/injection, schedule: Q03DX003 (ip), vehicle: saline
  T/C: 122 % of control [survivor count not shown]
T/C endpoint: mean survival time, dose: 2.5 mg/kg/injection, schedule: Q04DX003 (ip), vehicle: saline
  T/C: 128 % of control [survivor count not shown]
T/C endpoint: mean survival time, dose: 5.0 mg/kg/injection, schedule: Q01DX007 (ip), vehicle: saline
  T/C: 102 % of control [survivor count not shown]
T/C endpoint: mean survival time, dose: 5.0 mg/kg/injection, schedule: Q01DX009 (ip), vehicle: saline
  T/C: 112 % of control [survivor count not shown]
T/C endpoint: mean survival time, dose: 5.0 mg/kg/injection, schedule: Q03DX003 (ip), vehicle: saline
  T/C: 136 % of control [survivor count not shown]
T/C endpoint: mean survival time, dose: 5.0 mg/kg/injection, schedule: Q04DX003 (ip), vehicle: saline
  T/C: 132 % of control [survivor count not shown]
T/C endpoint: mean survival time, dose: 10.0 mg/kg/injection, schedule: Q03DX003 (ip), vehicle: saline
  T/C: 128 % of control [survivor count not shown]
T/C endpoint: mean survival time, dose: 10.0 mg/kg/injection, schedule: Q04DX003 (ip), vehicle: saline
  T/C: 110 % of control [survivor count not shown]
T/C endpoint: median survival time, dose: 0.63 mg/kg/injection, schedule: Q01DX009 (ip), vehicle: saline
  T/C: 111 [survivor count not shown] and 135 % of control [survivor count not shown]
T/C endpoint: median survival time, dose: 1.25 mg/kg/injection, schedule: Q01DX009 (ip), vehicle: saline
  T/C: 128 [survivor count not shown] and 133 % of control [survivor count not shown]
T/C endpoint: median survival time, dose: 2.5 mg/kg/injection, schedule: Q01DX009 (ip), vehicle: saline
  T/C: 144 [survivor count not shown] and 157 % of control [survivor count not shown]
T/C endpoint: median survival time, dose: 5.0 mg/kg/injection, schedule: Q01DX009 (ip), vehicle: saline
  T/C: 164 [survivor count not shown] and 166 % of control [survivor count not shown]

## CCC(C)(O)C#CCN(CCCl)CCCl (stereo unspecified)
T/C endpoint: mean survival time, dose: 12.5 mg/kg/injection, schedule: Q01DX001 (ip), vehicle: saline
  T/C: 121 % of control [survivor count not shown]
T/C endpoint: mean survival time, dose: 25.0 mg/kg/injection, schedule: Q01DX001 (ip), vehicle: saline
  T/C: 141 % of control [survivor count not shown]

## COC1=CC(=O)C(N(CCCl)CCCl)=CC1=O
T/C endpoint: mean survival time, dose: 1.56 mg/kg/injection, schedule: Q01DX009 (ip), vehicle: Klucel (hydroxypropylcellulose) (HPC)
  T/C: 111 % of control [survivor count not shown]
T/C endpoint: mean survival time, dose: 3.12 mg/kg/injection, schedule: Q01DX009 (ip), vehicle: Klucel (hydroxypropylcellulose) (HPC)
  T/C: 120 % of control [survivor count not shown]
[1]
  T/C: 97 [survivor count not shown] and 108 % of control [survivor count not shown]
